# From the supplement of paper PMC7238544
# Counter-ions that a name gives are not always drawn. ± gives the standard deviation of the averaged measurements. Some of the results follow. The data scatter; read single values as rough.
# Legend:
# hAMSC donor 1 [1] = experiment: Hoechst total cell count ratio vs vehicle control; higher = more cells (less toxicity)
# hAMSC donor 2 [2] = experiment: as above
# hAMSC donor 1 [3] = experiment: transgenic luciferase activity (RLU/mg protein) fold change vs vehicle control (ratio); higher = more transgene expression
# hAMSC donor 2 [4] = experiment: as above
# hAMSC donor 1 [5] = experiment: transfection efficiency (EGFP+ cells / Hoechst count) fold change vs vehicle control (ratio); hAMSC are human adipose-derived mesenchymal stem cells given an EGFP-luciferase plasmid by lipofection; higher = enhanced transfection
# hAMSC donor 2 [6] = experiment: as above
# [7] = priming compound concentration 0.2 µM
# [8] = priming compound concentration 1.7 µM
# [9] = priming compound concentration 13 µM
SMILES,Hoechst total cell count ratio (hAMSC donor 1 [1]; [7]),Hoechst total cell count ratio (hAMSC donor 1 [1]; [8]),Hoechst total cell count ratio (hAMSC donor 1 [1]; [9]),Hoechst total cell count ratio (hAMSC donor 2 [2]; [7]),Hoechst total cell count ratio (hAMSC donor 2 [2]; [8]),Hoechst total cell count ratio (hAMSC donor 2 [2]; [9]),transgenic luciferase activity (hAMSC donor 1 [3]; [7]),transgenic luciferase activity (hAMSC donor 2 [4]; [7]),transfection efficiency (hAMSC donor 1 [5]; [7]),transfection efficiency (hAMSC donor 1 [5]; [8]),transfection efficiency (hAMSC donor 1 [5]; [9]),transfection efficiency (hAMSC donor 2 [6]; [7]),transfection efficiency (hAMSC donor 2 [6]; [8]),transfection efficiency (hAMSC donor 2 [6]; [9]),transgenic luciferase activity (hAMSC donor 2 [4]; [8]),transgenic luciferase activity (hAMSC donor 1 [3]; [8]),transgenic luciferase activity (hAMSC donor 2 [4]; [9])
COCCOC(=O)C1=C(C)NC(C)=C(C(=O)OC(C)C)C1c1cccc([N+](=O)[O-])c1 (stereo not drawn) [Nimodipine],1.19 ± 0.11,1.26 ± 0.049,1.32 ± 0.041,1.04 ± 0.28,1.32 ± 0.13,1.18 ± 0.24,2.03 ± 1,0.945 ± 0.18,1.45 ± 0.47,1.24 ± 0.69,1.09 ± 0.19,1.19 ± 0.19,0.895 ± 0.025,1.04 ± 0.11,–,–,–
CC(=O)N[C@H]1[C@H]([C@H](O)[C@H](O)CO)OC(C(=O)O)=C[C@@H]1NC(=N)N [Zanamivir hydrate],1.36 ± 0.14,1.37 ± 0.17,1.23 ± 0.12,1.01 ± 0.11,1.05 ± 0.085,1.18 ± 0.063,0.585 ± 0.53,1.01 ± 0.38,0.671 ± 0.17,0.872 ± 0.13,1.6 ± 1.2,1.43 ± 0.26,0.907 ± 0.044,0.899 ± 0.15,–,–,–
C[C@H]1[C@H](OC(=O)CCC(=O)O)O[C@@H]2O[C@@]3(C)CC[C@H]4[C@H](C)CC[C@@H]1[C@@]24OO3 [Artesunate],1.4 ± 0.14,1.2 ± 0.17,1.36 ± 0.095,1.21 ± 0.21,1.47 ± 0.026,1.37 ± 0.079,0.724 ± 0.33,0.803 ± 0.22,0.569 ± 0.16,1.21 ± 0.52,0.842 ± 0.41,1.13 ± 0.081,0.624 ± 0.021,0.71 ± 0.13,–,–,–
COc1cc([C@@H]2c3cc4c(cc3[C@@H](O[C@@H]3O[C@@H]5CO[C@@H](C)O[C@H]5[C@H](O)[C@H]3O)[C@H]3COC(=O)[C@H]23)OCO4)cc(OC)c1O [Etoposide],1.06 ± 0.32,1.07 ± 0.2,0.715 ± 0.14,1.03 ± 0.4,1.24 ± 0.11,0.542 ± 0.049,0.737 ± 0.42,–,1.01 ± 0.45,1.11 ± 0.27,1.89 ± 0.71,1.08 ± 0.27,1.08 ± 0.26,1.35 ± 0.19,0.825 ± 0.2,–,–
C[C@H]1O[C@@H](O[C@H]2[C@@H](O)C[C@H](O[C@H]3[C@@H](O)C[C@H](O[C@H]4CC[C@@]5(C)[C@H](CC[C@@H]6[C@@H]5C[C@@H](O)[C@]5(C)[C@@H](C7=CC(=O)OC7)CC[C@]65O)C4)O[C@@H]3C)O[C@@H]2C)C[C@H](O)[C@@H]1O [Digoxin],0.856 ± 0.089,0.429 ± 0.037,0.254 ± 0.049,1.02 ± 0.25,0.855 ± 0.076,0.21 ± 0.034,3.21 ± 0.89,–,1.24 ± 0.41,1.23 ± 0.28,0.553 ± 0.36,1.15 ± 0.075,0.648 ± 0.15,0.0921 ± 0.035,1.05 ± 0.71,–,–
C[C@@H]1O[C@@H](OC[C@H]2O[C@@H](Oc3c(-c4ccc(O)c(O)c4)oc4cc(O)cc(O)c4c3=O)[C@H](O)[C@@H](O)[C@@H]2O)[C@H](O)[C@H](O)[C@H]1O [Rutin],1.06 ± 0.064,1.09 ± 0.19,1.34 ± 0.12,1.15 ± 0.027,0.983 ± 0.092,0.796 ± 0.48,0.754 ± 0.056,–,1.23 ± 0.17,0.656 ± 0.29,0.874 ± 0.33,0.918 ± 0.2,1.15 ± 0.42,1 ± 0.33,0.992 ± 0.25,–,–
O=C(O)C[C@H](O)C[C@H](O)/C=C/c1c(C2CC2)nc2ccccc2c1-c1ccc(F)cc1 [Itavastatin calcium],0.969 ± 0.33,1.01 ± 0.039,0.863 ± 0.2,1.32 ± 0.13,1.11 ± 0.094,0.756 ± 0.067,–,–,1.41 ± 0.31,1.32 ± 0.36,1.84 ± 0.41,1.07 ± 0.29,1.16 ± 0.24,2.64 ± 0.34,–,0.777 ± 0.43,1.13 ± 0.099
CN(C)[C@@H]1C(O)=C(C(N)=O)C(=O)[C@@]2(O)C(O)=C3C(=O)c4c(O)ccc(Cl)c4[C@@H](O)[C@H]3C[C@@H]12 [Demeclocycline],1.36 ± 0.17,1.42 ± 0.05,1.45 ± 0.089,1.21 ± 0.17,1.34 ± 0.05,1.25 ± 0.25,1.62 ± 0.86,1.13 ± 0.1,0.761 ± 0.14,0.974 ± 0.48,0.97 ± 0.13,1.14 ± 0.42,0.742 ± 0.035,0.842 ± 0.13,–,–,–
CCCc1nc(C(C)(C)O)c(C(=O)OCc2oc(=O)oc2C)n1Cc1ccc(-c2ccccc2-c2nnn[nH]2)cc1 [Olmesartan medoxomil],1.36 ± 0.043,1.45 ± 0.098,1.44 ± 0.098,1.12 ± 0.31,1.27 ± 0.046,1.49 ± 0.22,1.4 ± 0.29,1.01 ± 0.23,0.715 ± 0.08,0.838 ± 0.44,1.86 ± 0.49,1.14 ± 0.32,0.853 ± 0.076,0.671 ± 0.11,–,–,–
CCn1cc(C(=O)O)c(=O)c2cc(F)c(N3CCN(C)CC3)cc21 [Pefloxacin mesylate],1.04 ± 0.12,1.03 ± 0.11,1.23 ± 0.19,1.16 ± 0.14,1.16 ± 0.18,0.94 ± 0.048,–,–,1.38 ± 0.12,1.03 ± 0.32,1.15 ± 0.46,1.15 ± 0.087,1.15 ± 0.085,1.55 ± 0.28,–,1.23 ± 0.58,0.773 ± 0.17
C[C@](N)(Cc1ccc(O)cc1)C(=O)O [alpha-Methyl-L-tyrosine],1.15 ± 0.23,1.36 ± 0.26,1.34 ± 0.16,1.02 ± 0.053,1.35 ± 0.06,1.38 ± 0.092,2.11 ± 0.31,0.539 ± 0.17,0.679 ± 0.091,0.855 ± 0.25,1.59 ± 0.43,1.46 ± 0.29,0.901 ± 0.049,0.787 ± 0.12,–,–,–
CCOc1cc(CC(=O)N[C@@H](CC(C)C)c2ccccc2N2CCCCC2)ccc1C(=O)O [Repaglinide],1.08 ± 0.12,1.12 ± 0.061,0.981 ± 0.13,1.14 ± 0.062,1.39 ± 0.26,0.76 ± 0.12,1.45 ± 0.65,–,1.43 ± 0.27,1.17 ± 0.026,1.51 ± 0.36,1.12 ± 0.28,1.19 ± 0.19,1.18 ± 0.33,0.596 ± 0.087,–,–
O=C(O)CCc1nc(-c2ccccc2)c(-c2ccccc2)o1 [Oxaprozin],1.12 ± 0.1,1.29 ± 0.19,1.15 ± 0.075,0.884 ± 0.11,1.44 ± 0.19,0.811 ± 0.3,1.17 ± 0.88,–,1.24 ± 0.48,0.952 ± 0.17,1.25 ± 0.32,1.32 ± 0.23,0.771 ± 0.27,1.15 ± 0.46,0.443 ± 0.09,–,–
O=C1CCc2ccc(OCCCCN3CCN(c4cccc(Cl)c4Cl)CC3)cc2N1 [Aripiprazole],1.2 ± 0.14,1.48 ± 0.12,1.148 ± 0.0091,1.14 ± 0.16,1.13 ± 0.085,1.54 ± 0.19,1.04 ± 0.24,–,0.946 ± 0.32,0.802 ± 0.12,0.731 ± 0.091,0.958 ± 0.062,0.98 ± 0.014,0.581 ± 0.11,–,–,–
CCCOc1ccc(C(=O)OCCN(CC)CC)cc1N [Proxymetacaine],1.42 ± 0.091,1.39 ± 0.18,1.2 ± 0.14,0.869 ± 0.14,1.231 ± 0.01,1.25 ± 0.17,0.678 ± 0.28,–,0.856 ± 0.21,0.864 ± 0.035,0.914 ± 0.11,1.25 ± 0.14,0.992 ± 0.06,1.1 ± 0.22,–,–,–

# Pulled by structure from the list above, 2 records:
SMILES,Hoechst total cell count ratio (hAMSC donor 1 [1]; [7]),Hoechst total cell count ratio (hAMSC donor 1 [1]; [8]),Hoechst total cell count ratio (hAMSC donor 1 [1]; [9]),Hoechst total cell count ratio (hAMSC donor 2 [2]; [7]),Hoechst total cell count ratio (hAMSC donor 2 [2]; [8]),Hoechst total cell count ratio (hAMSC donor 2 [2]; [9]),transgenic luciferase activity (hAMSC donor 1 [3]; [7]),transgenic luciferase activity (hAMSC donor 2 [4]; [7]),transfection efficiency (hAMSC donor 1 [5]; [7]),transfection efficiency (hAMSC donor 1 [5]; [8]),transfection efficiency (hAMSC donor 1 [5]; [9]),transfection efficiency (hAMSC donor 2 [6]; [7]),transfection efficiency (hAMSC donor 2 [6]; [8]),transfection efficiency (hAMSC donor 2 [6]; [9]),transgenic luciferase activity (hAMSC donor 2 [4]; [8]),transgenic luciferase activity (hAMSC donor 1 [3]; [8]),transgenic luciferase activity (hAMSC donor 2 [4]; [9])
CCOc1cc(CC(=O)N[C@@H](CC(C)C)c2ccccc2N2CCCCC2)ccc1C(=O)O [Repaglinide],1.08 ± 0.12,1.12 ± 0.061,0.981 ± 0.13,1.14 ± 0.062,1.39 ± 0.26,0.76 ± 0.12,1.45 ± 0.65,–,1.43 ± 0.27,1.17 ± 0.026,1.51 ± 0.36,1.12 ± 0.28,1.19 ± 0.19,1.18 ± 0.33,0.596 ± 0.087,–,–
O=C1CCc2ccc(OCCCCN3CCN(c4cccc(Cl)c4Cl)CC3)cc2N1 [Aripiprazole],1.2 ± 0.14,1.48 ± 0.12,1.148 ± 0.0091,1.14 ± 0.16,1.13 ± 0.085,1.54 ± 0.19,1.04 ± 0.24,–,0.946 ± 0.32,0.802 ± 0.12,0.731 ± 0.091,0.958 ± 0.062,0.98 ± 0.014,0.581 ± 0.11,–,–,–
